{"source": "patent US20200340060A1", "about": "“COMPOSITIONS AND METHODS FOR IDENTIFYING AND TREATING LIVER DISEASES AND MONITORING TREATMENT OUTCOMES” (Gilead Sciences, Inc., priority 2017, published 2020)", "molecules": {"B1": {"name": "Dtk (protein, UniProt Q06418 41-890, looked up)", "Tyrosine-protein kinase …": "AGLKLMGAPVKLTVSQGQPVKLNCSVEGMEEPDIQWVKDGAVVQNLDQLYIPVSEQHWIGFLSLKSVERSDAGRYWCQVEDGGETEISQPVWLTVEGVPFFTVEPKDLAVPPNAPFQLSCEAVGPPEPVTIVWWRGTTKIGGPAPSPSVLNVTGVTQSTMFSCEAHNLKGLASSRTATVHLQALPAAPFNITVTKLSSSNASVAWMPGADGRALLQSCTVQVTQAPGGWEVLAVVVPVPPFTCLLRDLVPATNYSLRVRCANALGPSPYADWVPFQTKGLAPASAPQNLHAIRTDSGLILEWEEVIPEAPLEGPLGPYKLSWVQDNGTQDELTVEGTRANLTGWDPQKDLIVRVCVSNAVGCGPWSQPLVVSSHDRAGQQGPPHSRTSWVPVVLGVLTALVTAAALALILLRKRRKETRFGQAFDSVMARGEPAVHFRAARSFNRERPERIEATLDSLGISDELKEKLEDVLIPEQQFTLGRMLGKGEFGSVREAQLKQEDGSFVKVAVKMLKADIIASSDIEEFLREAACMKEFDHPHVAKLVGVSLRSRAKGRLPIPMVILPFMKHGDLHAFLLASRIGENPFNLPLQTLIRFMVDIACGMEYLSSRNFIHRDLAARNCMLAEDMTVCVADFGLSRKIYSGDYYRQGCASKLPVKWLALESLADNLYTVQSDVWAFGVTMWEIMTRGQTPYAGIENAEIYNYLIGGNRLKQPPECMEDVYDLMYQCWSADPKQRPSFTCLRMELENILGQLSVLSASQDPLYINIERAEEPTAGGSLELPGRDQPYSGAGDGSGMGAVGGTPSDCRYILTPGGLAEQPGQAEHQPESPLNETQRLLLLQQGLLPHSSC"}, "B2": {"name": "KI3L2 (protein, UniProt P43630 22-455, looked up)", "Killer cell …": "LMGGQDKPFLSARPSTVVPRGGHVALQCHYRRGFNNFMLYKEDRSHVPIFHGRIFQESFIMGPVTPAHAGTYRCRGSRPHSLTGWSAPSNPLVIMVTGNHRKPSLLAHPGPLLKSGETVILQCWSDVMFEHFFLHREGISEDPSRLVGQIHDGVSKANFSIGPLMPVLAGTYRCYGSVPHSPYQLSAPSDPLDIVITGLYEKPSLSAQPGPTVQAGENVTLSCSSWSSYDIYHLSREGEAHERRLRAVPKVNRTFQADFPLGPATHGGTYRCFGSFRALPCVWSNSSDPLLVSVTGNPSSSWPSPTEPSSKSGICRHLHVLIGTSVVIFLFILLLFFLLYRWCSNKKNAAVMDQEPAGDRTVNRQDSDEQDPQEVTYAQLDHCVFIQRKISRPSQRPKTPLTDTSVYTELPNAEPRSKVVSCPRAPQSGLEGVF"}, "B3": {"name": "PDXK (protein, UniProt O00764 1-312, looked up)", "Pyridoxal kinase": "MEEECRVLSIQSHVIRGYVGNRAATFPLQVLGFEIDAVNSVQFSNHTGYAHWKGQVLNSDELQELYEGLRLNNMNKYDYVLTGYTRDKSFLAMVVDIVQELKQQNPRLVYVCDPVLGDKWDGEGSMYVPEDLLPVYKEKVVPLADIITPNQFEAELLSGRKIHSQEEALRVMDMLHSMGPDTVVITSSDLPSPQGSNYLIVLGSQRRRNPAGSVVMERIRMDIRKVDAVFVGTGDLFAAMLLAWTHKHPNNLKVACEKTVSTLHHVLQRTIQCAKAQAGEGVRPSPMQLELRMVQSKRDIEDPEIVVQATVL"}, "B4": {"name": "MK13 (protein, UniProt O15264 1-365, looked up)", "Mitogen-activated protein …": "MSLIRKKGFYKQDVNKTAWELPKTYVSPTHVGSGAYGSVCSAIDKRSGEKVAIKKLSRPFQSEIFAKRAYRELLLLKHMQHENVIGLLDVFTPASSLRNFYDFYLVMPFMQTDLQKIMGMEFSEEKIQYLVYQMLKGLKYIHSAGVVHRDLKPGNLAVNEDCELKILDFGLARHADAEMTGYVVTRWYRAPEVILSWMHYNQTVDIWSVGCIMAEMLTGKTLFKGKDYLDQLTQILKVTGVPGTEFVQKLNDKAAKSYIQSLPQTPRKDFTQLFPRASPQAADLLEKMLELDVDKRLTAAQALTHPFFEPFRDPEEETEAQQPFDDSLEHEKLTVDEWKQHIYKEIVNFSPIARKDSRRRSGMKL"}, "B5": {"name": "DcR3 (protein, UniProt O95407 30-300, looked up)", "Tumor necrosis factor …": "VAETPTYPWRDAETGERLVCAQCPPGTFVQRPCRRDSPTTCGPCPPRHYTQFWNYLERCRYCNVLCGEREEEARACHATHNRACRCRTGFFAHAGFCLEHASCPPGAGVIAPGTPSQNTQCQPCPPGTFSASSSSSEQCQPHRNCTALGLALNVPGSSSHDTLCTSCTGFPLSTRVPGAEECERAVIDFVAFQDISIKRLQRLLQALEAPEGWGPTPRAGRAALQLKLRRRLTELLGAQDGALLVRLLQALRVARMPGLERSVRERFLPVH"}, "B6": {"name": "PCI (protein, UniProt P05154 26-406, looked up)", "Plasma serine protease …": "EMKKRVEDLHVGATVAPSSRRDFTFDLYRALASAAPSQSIFFSPVSISMSLAMLSLGAGSSTKMQILEGLGLNLQKSSEKELHRGFQQLLQELNQPRDGFQLSLGNALFTDLVVDLQDTFVSAMKTLYLADTFPTNFRDSAGAMKQINDYVAKQTKGKIVDLLKNLDSNAVVIMVNYIFFKAKWETSFNHKGTQEQDFYVTSETVVRVPMMSREDQYHYLLDRNLSCRVVGVPYQGNATALFILPSEGKMQQVENGLSEKTLRKWLKMFKKRQLELYLPKFSIEGSYQLEKVLPSLGISNVFTSHADLSGISNHSNIQVSEMVHKAVVEVDESGTRAAAATGTIFTFRSARLNSQRLVFNRPFLMFIVDNNILFLGKVNRP"}, "B7": {"name": "Troponin I, skeletal, fast twitch (protein, UniProt P48788 2-182, looked up)", "Troponin I, fast skeletal …": "GDEEKRNRAITARRQHLKSVMLQIAATELEKEESRREAEKQNYLAEHCPPLHIPGSMSEVQELCKQLHAKIDAAEEEKYDMEVRVQKTSKELEDMNQKLFDLRGKFKRPPLRRVRMSADAMLKALLGSKHKVCMDLRANLKQVKKEDTEKERDLRDVGDWRKNIEEKSGMEGRKKMFESES"}, "B8": {"name": "Cathepsin H (protein, UniProt P09668 116-335, looked up)", "Cathepsin H": "YPPSVDWRKKGNFVSPVKNQGACGSCWTFSTTGALESAIAIATGKMLSLAEQQLVDCAQDFNNHGCQGGLPSQAFEYILYNKGIMGEDTYPYQGKDGYCKFQPGKAIGFVKDVANITIYDEEAMVEAVALYNPVSFAFEVTQDFMMYRTGIYSSTSCHKTPDKVNHAVLAVGYGEKNGIPYWIVKNSWGPQWGMNGYFLIERGKNMCGLAACASYPIPLV"}, "B9": {"name": "INGR2 (protein, UniProt P38484 22-337, looked up)", "Interferon gamma receptor 2": "APPDPLSQLPAPQHPKIRLYNAEQVLSWEPVALSNSTRPVVYQVQFKYTDSKWFTADIMSIGVNCTQITATECDFTAASPSAGFPMDFNVTLRLRAELGALHSAWVTMPWFQHYRNVTVGPPENIEVTPGEGSLIIRFSSPFDIADTSTAFFCYYVHYWEKGGIQQVKGPFRSNSISLDNLKPSRVYCLQVQAQLLWNKSNIFRVGHLSNISCYETMADASTELQQVILISVGTFSLLSVLAGACFFLVLKYRGLIKYWFHTPPSIPLQIEEYLKDPTQPILEALDKDSSPKDDVWDSVSIISFPEKEQEDVLQTL"}, "B10": {"name": "GITR (protein, UniProt Q9Y5U5 26-241, looked up)", "Tumor necrosis factor …": "QRPTGGPGCGPGRLLLGTGTDARCCRVHTTRCCRDYPGEECCSEWDCMCVQPEFHCGDPCCTTCRHHPCPPGQGVQSQGKFSFGFQCIDCASGTFSGGHEGHCKPWTDCTQFGFLTVFPGNKTHNAVCVPGSPPAEPLGWLTVVLLAVAACVLLLTSAQLGLHIWQLRSQCMWPRETQLLLEVPPSTEDARSCQFPEEERGERSAEEKGRLGDLWV"}, "B11": {"name": "Cystatin-S (protein, UniProt P01036 21-141, looked up)", "Cystatin-S": "SSSKEENRIIPGGIYDADLNDEWVQRALHFAISEYNKATEDEYYRRPLQVLRAREQTFGGVNYFFDVEVGRTICTKSQPNLDTCAFHEQPELQKKQLCSFEIYEVPWEDRMSLVNSRCQEA"}, "B12": {"name": "LY9 (protein, UniProt Q9HBG7 48-655, looked up)", "T-lymphocyte surface antigen …": "KDSAPTVVSGILGGSVTLPLNISVDTEIENVIWIGPKNALAFARPKENVTIMVKSYLGRLDITKWSYSLCISNLTLNDAGSYKAQINQRNFEVTTEEEFTLFVYEQLQEPQVTMKSVKVSENFSCNITLMCSVKGAEKSVLYSWTPREPHASESNGGSILTVSRTPCDPDLPYICTAQNPVSQRSSLPVHVGQFCTDPGASRGGTTGETVVGVLGEPVTLPLALPACRDTEKVVWLFNTSIISKEREEAATADPLIKSRDPYKNRVWVSSQDCSLKISQLKIEDAGPYHAYVCSEASSVTSMTHVTLLIYRRLRKPKITWSLRHSEDGICRISLTCSVEDGGNTVMYTWTPLQKEAVVSQGESHLNVSWRSSENHPNLTCTASNPVSRSSHQFLSENICSGPERNTKLWIGLFLMVCLLCVGIFSWCIWKRKGRCSVPAFCSSQAEAPADTPEPTAGHTLYSVLSQGYEKLDTPLRPARQQPTPTSDSSSDSNLTTEEDEDRPEVHKPISGRYEVFDQVTQEGAGHDPAPEGQADYDPVTPYVTEVESVVGENTMYAQVFNLQGKTPVSQKEESSATIYCSIRKPQVVPPPQQNDLEIPESPTYENFT"}, "B13": {"name": "GNS (protein, UniProt P15586 37-552, looked up)", "N-acetylglucosamine-6-sulfatas …": "VFGVAAGTRRPNVVLLLTDDQDEVLGGMTPLKKTKALIGEMGMTFSSAYVPSALCCPSRASILTGKYPHNHHVVNNTLEGNCSSKSWQKIQEPNTFPAILRSMCGYQTFFAGKYLNEYGAPDAGGLEHVPLGWSYWYALEKNSKYYNYTLSINGKARKHGENYSVDYLTDVLANVSLDFLDYKSNFEPFFMMIATPAPHSPWTAAPQYQKAFQNVFAPRNKNFNIHGTNKHWLIRQAKTPMTNSSIQFLDNAFRKRWQTLLSVDDLVEKLVKRLEFTGELNNTYIFYTSDNGYHTGQFSLPIDKRQLYEFDIKVPLLVRGPGIKPNQTSKMLVANIDLGPTILDIAGYDLNKTQMDGMSLLPILRGASNLTWRSDVLVEYQGEGRNVTDPTCPSLSPGVSQCFPDCVCEDAYNNTYACVRTMSALWNLQYCEFDDQEVFVEVYNLTADPDQITNIAKTIDPELLGKMNYRLMMLQSCSGPTCRTPGVFDPGYRFDPRLMFSNRGSVRTRRFSKHLL"}}}
{"test": "SOMAscan serum proteomics in NASH subjects treated with selonsertib/simtuzumab, baseline and week 24", "parameters": "species or system human", "conditions": "serum protein marker level; CRN fibrosis stage improvers; week 24 vs baseline", "units": {"Median percent CHG at W24 in improver": "%"}}
{"molecule": "B1", "Median percent CHG at W24 in improver": "−1.06"}
{"molecule": "B2", "Median percent CHG at W24 in improver": 1.92}
{"molecule": "B3", "Median percent CHG at W24 in improver": "−13.7"}
{"molecule": "B4", "Median percent CHG at W24 in improver": 0.54}
{"molecule": "B5", "Median percent CHG at W24 in improver": 1.1}
{"molecule": "B6", "Median percent CHG at W24 in improver": 1.79}
{"molecule": "B7", "Median percent CHG at W24 in improver": "−1.77"}
{"molecule": "B8", "Median percent CHG at W24 in improver": "−13.86"}
{"molecule": "B9", "Median percent CHG at W24 in improver": 2.76}
{"molecule": "B10", "Median percent CHG at W24 in improver": "−7.67"}
{"molecule": "B11", "Median percent CHG at W24 in improver": 3.35}
{"molecule": "B12", "Median percent CHG at W24 in improver": "−6.33"}
{"test": "SOMAscan serum proteomics in NASH subjects treated with selonsertib/simtuzumab, baseline and week 24", "parameters": "species or system human", "conditions": "serum protein marker level; CRN fibrosis stage non-improvers; week 24 vs baseline", "units": {"Median percent CHG at W24 in Non-improver": "%"}}
{"molecule": "B1", "Median percent CHG at W24 in Non-improver": 2.32}
{"molecule": "B2", "Median percent CHG at W24 in Non-improver": "−1.21"}
{"molecule": "B3", "Median percent CHG at W24 in Non-improver": "−2.82"}
{"molecule": "B4", "Median percent CHG at W24 in Non-improver": "−4.33"}
{"molecule": "B5", "Median percent CHG at W24 in Non-improver": "−2.01"}
{"molecule": "B6", "Median percent CHG at W24 in Non-improver": 12.19}
{"molecule": "B7", "Median percent CHG at W24 in Non-improver": 6.48}
{"molecule": "B8", "Median percent CHG at W24 in Non-improver": "−3.02"}
{"molecule": "B9", "Median percent CHG at W24 in Non-improver": "−1"}
{"molecule": "B10", "Median percent CHG at W24 in Non-improver": "−1.84"}
{"molecule": "B11", "Median percent CHG at W24 in Non-improver": "−1.78"}
{"molecule": "B12", "Median percent CHG at W24 in Non-improver": 3.6}
{"test": "SOMAscan serum proteomics in NASH subjects treated with selonsertib/simtuzumab, baseline and week 24", "parameters": "species or system human", "conditions": "serum protein marker level; hepatic ballooning improvers; week 24 vs baseline", "units": {"Median percent CHG at W24 in improver": "%"}}
{"molecule": "B13", "Median percent CHG at W24 in improver": "−6.64"}
{"test": "SOMAscan serum proteomics in NASH subjects treated with selonsertib/simtuzumab, baseline and week 24", "parameters": "species or system human", "conditions": "serum protein marker level; hepatic ballooning non-improvers; week 24 vs baseline", "units": {"Median percent CHG at W24 in Non-improver": "%"}}
{"molecule": "B13", "Median percent CHG at W24 in Non-improver": 3.03}
